{"sequences": {"note": "Chains of the proteins cited; added tags and fusions are not shown. Lines headed by an entry give the natural chain unless they say otherwise; changes in a name come on top.", "UniProt P37689": "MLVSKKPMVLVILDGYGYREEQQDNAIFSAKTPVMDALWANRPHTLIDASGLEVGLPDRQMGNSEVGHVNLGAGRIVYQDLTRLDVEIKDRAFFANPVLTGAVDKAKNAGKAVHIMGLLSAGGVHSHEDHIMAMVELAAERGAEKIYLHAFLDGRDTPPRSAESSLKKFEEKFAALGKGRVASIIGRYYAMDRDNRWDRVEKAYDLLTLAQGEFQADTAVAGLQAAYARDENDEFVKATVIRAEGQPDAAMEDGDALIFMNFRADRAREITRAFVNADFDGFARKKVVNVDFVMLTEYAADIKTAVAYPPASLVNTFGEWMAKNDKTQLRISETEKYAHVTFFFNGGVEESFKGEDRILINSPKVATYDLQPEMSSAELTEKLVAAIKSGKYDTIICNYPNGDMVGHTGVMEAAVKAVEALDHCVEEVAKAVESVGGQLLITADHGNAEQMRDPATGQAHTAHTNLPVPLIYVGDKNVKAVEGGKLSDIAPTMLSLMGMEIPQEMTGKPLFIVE"}, "source": "patent US20200399318A1", "about": "“PEPTIDE INHIBITORS OF PHOSPHOGLYCERATE MUTASE AND METHODS OF USE” (priority 2016, published 2020)", "key": {"[1]": {"system": "iPGM orthologs and dPGM isozymes", "format": "biochemical"}, "[2]": {"target": "E. coli iPGM (Escherichia coli, UniProt P37689)", "format": "biochemical"}}, "note": "At least one peptide structure holds a part that was inferred or is arguable (an end, a ring closure or a residue). Some entries share one result that the patent states for a list of compounds. Where a SMILES comes first, the peptide text is derived from it. Bridges are numbered along the chain shown (N, C = ends). [ ]: non-standard residue; d: D form."}
{"compound": "CC(C)C[C@H](NC(=O)[C@H](Cc1ccc(O)cc1)NC(=O)[C@@H]1CSCC(=O)N[C@H](Cc2ccc(O)cc2)C(=O)N[C@@H](CC(=O)O)C(=O)N[C@@H](Cc2ccc(O)cc2)C(=O)N2CCC[C@H]2C(=O)NCC(=O)N[C@@H](CC(=O)O)C(=O)N[C@@H](Cc2c[nH]cn2)C(=O)N1)C(=O)N[C@@H](Cc1ccc(O)cc1)C(=O)NCC(=O)N[C@H](C(=O)N[C@@H](CS)C(=O)NCC(N)=O)[C@@H](C)O", "note": "[Ce-1]", "values": [{"measurement": "IC50", "setting": "[1]; read-out: nominal activity on the iPGM orthologues", "result": "2 to 20", "unit": "nM"}]}
{"compound": "CC(C)C[C@H](NC(=O)[C@H](Cc1ccc(O)cc1)NC(=O)[C@@H]1CSCC(=O)N[C@H](Cc2ccc(O)cc2)C(=O)N[C@@H](CC(=O)O)C(=O)N[C@@H](Cc2ccc(O)cc2)C(=O)N2CCC[C@H]2C(=O)NCC(=O)N[C@@H](CC(=O)O)C(=O)N[C@@H](Cc2ccc(O)cc2)C(=O)N1)C(=O)N[C@@H](Cc1ccc(O)cc1)C(=O)NCC(=O)N[C@H](C(=O)N[C@@H](CO)C(=O)NCC(N)=O)[C@@H](C)O", "note": "[Ce-2S]", "values": [{"measurement": "separation in potency between the iPGMs of C. elegans and E. coli versus B. malayi, O. volvulus, and D. immitis", "setting": "[1]", "result": 100, "unit": "fold"}, {"measurement": "E. coli iPGM PIC50, M", "setting": "[2]", "result": "7.98 ± 0.27", "unit": "M"}, {"measurement": "decrease in inhibitory activity versus Ce-2, E. coli iPGM", "setting": "[2]", "result": "approximately 100 fold"}]}
{"compound": "CC(C)C[C@H](NC(=O)[C@H](Cc1ccc(O)cc1)NC(=O)[C@@H]1CSCC(=O)N[C@H](Cc2ccc(O)cc2)C(=O)N[C@@H](CC(=O)O)C(=O)N[C@@H](Cc2ccc(O)cc2)C(=O)N2CCC[C@H]2C(=O)NCC(=O)N[C@@H](CC(=O)O)C(=O)N[C@@H](Cc2ccc(O)cc2)C(=O)N1)C(=O)N[C@@H](Cc1ccc(O)cc1)C(=O)NCC(=O)N[C@H](C(N)=O)[C@@H](C)O", "note": "[Ce-2b]", "values": [{"measurement": "potency decrease on truncation of Ce-2 beyond Cys14", "setting": "[1]", "result": "~10", "unit": "fold"}]}
{"compound": "CC(C)C[C@H](NC(=O)[C@H](Cc1ccc(O)cc1)NC(=O)[C@@H]1CSCC(=O)N[C@H](Cc2ccc(O)cc2)C(=O)N[C@@H](CC(=O)O)C(=O)N[C@@H](Cc2ccc(O)cc2)C(=O)N2CCC[C@H]2C(=O)NCC(=O)N[C@@H](CC(=O)O)C(=O)N[C@@H](Cc2ccc(O)cc2)C(=O)N1)C(=O)N[C@@H](Cc1ccc(O)cc1)C(=O)NCC(N)=O", "note": "[Ce-2c]", "values": [{"measurement": "potency decrease on truncation of Ce-2 beyond Cys14", "setting": "[1]", "result": "~10", "unit": "fold"}]}
{"compound": "NC(=O)[C@H](Cc1ccc(O)cc1)NC(=O)[C@@H]1CSCC(=O)N[C@H](Cc2ccc(O)cc2)C(=O)N[C@@H](CC(=O)O)C(=O)N[C@@H](Cc2ccc(O)cc2)C(=O)N2CCC[C@H]2C(=O)NCC(=O)N[C@@H](CC(=O)O)C(=O)N[C@@H](Cc2ccc(O)cc2)C(=O)N1", "note": "[Ce-2f] ({CH2CO}-[dY]DYPGDYCY-NH2; thioether N-8)", "values": [{"measurement": "inhibitory activity on the iPGM orthologs", "setting": "[1]", "result": "virtual inactivation"}]}
